Taken from: PubChem BioAssay AID1259425 (University of Nebraska Medical Center, 2018)
This is an unselected part of about 14,000 reagents. Some reagents were tested in more than one well and are listed for each. Not all columns of the deposit are shown. Not stated in the record: the time to read-out.

Assay: 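Compare each knockdown with KSR1 silencing using changes in marker transcripts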 (primary screen)
Cells: HCT116 human colon cancer cells
Reagents: siRNA pool against human genes, 50 nM siRNA
Detection: 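After 50 nM siRNA pool, branched-DNA assay measures six marker transcripts per well, minus blank, normalised to the geometric mean of two housekeeping transcripts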
Scale: BNIP3L mRNA: higher = more BNIP3L transcript after knockdown

| gene | BNIP3L mRNA, set 1 |
| --- | --- |
| RARS1 (arginyl-tRNA synthetase 1) | 0.154 |
| ALKBH2 (alkB homolog 2, alpha-ketoglutarate dependent dioxygenase) | 0.0762 |
| BCAP31 (B cell receptor associated protein 31) | 0.164 |
| GNAS (GNAS complex locus) | 0.161 |
| ATXN2L (ataxin 2 like) | 0.0775 |
| DRD1 (dopamine receptor D1) | 0.182 |
| DNAJA1 (DnaJ heat shock protein family (Hsp40) member A1) | 0.182 |
| ZNF248 (zinc finger protein 248) | 0.173 |
| ZNF460 (zinc finger protein 460) | 0.11 |
| KLRC1 (killer cell lectin like receptor C1) | 0.0877 |
| FCN1 (ficolin 1) | 0.0553 |
| RAB10 (RAB10, member RAS oncogene family) | 0.0863 |
| BNC1 (basonuclin zinc finger protein 1) | 0.125 |
| WIPI1 (WD repeat domain, phosphoinositide interacting 1) | 0.0618 |
| EDDM3B (epididymal protein 3B) | 0.0664 |
| CAVIN2 (caveolae associated protein 2) | 0.106 |
| PSMA1 (proteasome 20S subunit alpha 1) | 0.307 |
| POC1A (POC1 centriolar protein A) | 0.165 |
| HCLS1 (hematopoietic cell-specific Lyn substrate 1) | 0.14 |
| ST7 (suppression of tumorigenicity 7) | 0.122 |
| DDB2 (damage specific DNA binding protein 2) | 0.102 |
| SPTA1 (spectrin alpha, erythrocytic 1) | 0.116 |
| ADCYAP1R1 (ADCYAP receptor type I) | 0.098 |
| TMED9 (transmembrane p24 trafficking protein 9) | 0.127 |
| PLAU (plasminogen activator, urokinase) | 0.0658 |
| MMP21 (matrix metallopeptidase 21) | 0.103 |
| ZNF157 (zinc finger protein 157) | 0.175 |
| STX3 (syntaxin 3) | 0.134 |
| MATK (megakaryocyte-associated tyrosine kinase) | 0.0952 |
| CHFR (checkpoint with forkhead and ring finger domains) | 0.0769 |
| TRAPPC13 (trafficking protein particle complex subunit 13) | 0.0614 |
| SACK1D (scaffolding CK1 anchoring protein D) | 0.136 |
| KIAA1614 | 0.0958 |
| EXTL2 (exostosin like glycosyltransferase 2) | 0.0986 |
| LIMA1 (LIM domain and actin binding 1) | 0.0621 |
| XRCC5 (X-ray repair cross complementing 5) | 0.19 |
| CIDEA (cell death inducing DFFA like effector a) | 0.0876 |
| ECSIT (ECSIT signaling integrator) | 0.223 |
| EIF2S1 (eukaryotic translation initiation factor 2 subunit alpha) | 0.158 |
| SLC12A9 | 0.182 |
| JAM2 (junctional adhesion molecule 2) | 0.115 |
| ABTB2 (ankyrin repeat and BTB domain containing 2) | 0.179 |
| SMC3 (structural maintenance of chromosomes 3) | 0.0909 |
| SMARCC2 (SWI/SNF related BAF chromatin remodeling complex subunit C2) | 0.0734 |
| MYO18A (myosin XVIIIA) | 0.213 |
| TSPAN32 (tetraspanin 32) | 0.095 |
| IMP3 (IMP U3 small nucleolar ribonucleoprotein 3) | 0.213 |
| PDE1B (phosphodiesterase 1B) | 0.143 |
| RNF40 (ring finger protein 40) | 0.107 |
| SLC9A8 | 0.133 |
| PIK3CB | 0.146 |
| PIK3CB | 0.132 |
| RBFOX2 (RNA binding fox-1 homolog 2) | 0.284 |
| LCE3D (late cornified envelope 3D) | 0.16 |
| ARHGAP4 (Rho GTPase activating protein 4) | 0.055 |
| CNN3 (calponin 3) | 0.0775 |
| CABP1 (calcium binding protein 1) | 0.0648 |
| DAZAP2 (DAZ associated protein 2) | 0.108 |
| ELOC (elongin C) | 0.224 |
| SLC2A6 | 0.15 |
| SCAP (SREBF chaperone) | 0.0746 |
| CD320 (CD320 molecule) | 0.0994 |
| SGTA | 0.165 |
